Test results published in patent publication US20140073658A1, “Dipyridylamine Derivative” (Daiichi Sankyo Company, Limited, priority 2011, published 2014).
Some of these results come from one statement about several compounds together.

Molecular target: T1, human pancreatic GK (human glucokinase variant 1, GST-fused) (Homo sapiens, UniProt P35557)
T1 construct: GST; made in house; host or cells: Escherichia coli (such as BL21)
T1 sequence (P35557 1-465): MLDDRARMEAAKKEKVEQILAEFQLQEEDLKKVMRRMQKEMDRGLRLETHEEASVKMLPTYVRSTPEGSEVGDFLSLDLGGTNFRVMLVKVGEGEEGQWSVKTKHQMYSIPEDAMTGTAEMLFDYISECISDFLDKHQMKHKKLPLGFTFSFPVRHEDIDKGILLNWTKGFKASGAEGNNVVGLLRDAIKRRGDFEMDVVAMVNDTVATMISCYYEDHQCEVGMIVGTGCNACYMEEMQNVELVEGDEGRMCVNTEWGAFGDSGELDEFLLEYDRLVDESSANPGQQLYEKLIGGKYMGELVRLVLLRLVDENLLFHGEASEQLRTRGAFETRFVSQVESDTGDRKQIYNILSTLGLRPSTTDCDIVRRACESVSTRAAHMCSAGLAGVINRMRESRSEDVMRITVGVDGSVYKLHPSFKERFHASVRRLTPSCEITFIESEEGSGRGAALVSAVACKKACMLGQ
Test: GK activity test (GK activation ratio)
Type: biochemical
Details: test compound concentration 10 μM; glucose final concentration 5 mM; 30 minutes at room temperature; absorbance 340 nm

Compound	GK activation ratio (absorbance after reacting for 30 minutes when test compound added)/(when test compound not added)
Fc1ccc(Oc2cc(SCC3CC3)cnc2Nc2ccc(-c3nnn[nH]3)cn2)cc1 [Example 21, [5-(Cyclopropylmethylsulfanyl)-3-(4-fluorophenoxy)pyridin-2-yl]-[5-(1H-tetrazol-5-yl)pyridin-2-yl]amine]	≥ 1.4 times
COCC(O)CSc1cnc(Nc2ccc(-c3nnn[nH]3)cn2)c(Oc2ccc(F)cc2)c1 (stereo not drawn) [Example 22, 1-{5-(4-Fluorophenoxy)-6-[5-(1H-tetrazol-5-yl)pyridin-2-ylamino]pyridin-3-ylsulfanyl}-3-methoxypropan-2-ol]	≥ 1.4 times
COCC(F)CSc1cnc(Nc2ccc(-c3nnn[nH]3)cn2)c(Oc2ccc(F)cc2)c1 (stereo not drawn) [Example 23, [5-(2-Fluoro-3-methoxypropylsulfanyl)-3-(4-fluorophenoxy)pyridin-2-yl]-[5-(1H-tetrazol-5-yl)pyridin-2-yl]amine]	≥ 1.4 times
OCC1CC1CSc1cnc(Nc2ccc(-c3nnn[nH]3)cn2)c(Oc2ccc(F)cc2)c1 (stereo not drawn) [Example 24, 2-{5-(4-Fluorophenoxy)-6-[5-(1H-tetrazol-5-yl)pyridin-2-ylamino]pyridin-3-ylsulfanylmethyl}cyclopropylmethanol]	≥ 1.4 times
OCC(F)(F)Sc1cnc(Nc2ccc(-c3nnn[nH]3)cn2)c(Oc2ccc(F)cc2)c1 [Example 25, 2,2-Difluoro-2-{5-(4-fluorophenoxy)-6-[5-(1H-tetrazol-5-yl)pyridin-2-ylamino]pyridin-3-ylsulfanyl}ethanol]	≥ 1.4 times
COCC(C)Sc1cnc(Nc2ccc(-c3nnn[nH]3)cn2)c(Oc2ccc(F)cc2)c1 (stereo not drawn) [Example 26, [3-(4-Fluorophenoxy)-5-(2-methoxy-1-methylethylsulfanyl)pyridin-2-yl]-[5-(1H-tetrazol-5-yl)pyridin-2-yl]amine]	≥ 1.4 times
CC(CCO)Sc1cnc(Nc2ccc(-c3nnn[nH]3)cn2)c(Oc2ccc(F)cc2)c1 (stereo not drawn) [Example 27, 3-{5-(4-Fluorophenoxy)-6-[5-(1H-tetrazol-5-yl)pyridin-2-ylamino]pyridin-3-ylsulfanyl}butan-1-ol]	≥ 1.4 times
COCCCSc1cnc(Nc2ccc(-c3nnn[nH]3)cn2)c(Oc2ccc(F)c(F)c2)c1 [Example 28, [3-(3,4-Difluorophenoxy)-5-(3-methoxypropylsulfanyl)pyridin-2-yl]-[5-(1H-tetrazol-5-yl)pyridin-2-yl]amine]	≥ 1.4 times
OCCCSc1cnc(Nc2ccc(-c3nnn[nH]3)cn2)c(Oc2ccc(F)c(F)c2)c1 [Example 29, 3-{5-(3,4-Difluorophenoxy)-6-[5-(1H-tetrazol-5-yl)pyridin-2-ylamino]pyridin-3-ylsulfanyl}propan-1-ol]	≥ 1.4 times
CCOC(=O)C(C)Sc1cnc(Nc2ccc(-c3nnn[nH]3)cn2)c(Oc2ccc(F)c(F)c2)c1 (stereo not drawn) [Example 30, Ethyl 2-{5-(3,4-difluorophenoxy)-6-[5-(1H-tetrazol-5-yl)pyridin-2-ylamino]pyridin-3-ylsulfanyl}propionate]	≥ 1.4 times
CCOC(=O)C(C)(C)Sc1cnc(Nc2ccc(-c3nnn[nH]3)cn2)c(Oc2ccc(F)c(F)c2)c1 [Example 31, Ethyl 2-{5-(3,4-difluorophenoxy)-6-[5-(1H-tetrazol-5-yl)pyridin-2-ylamino]pyridin-3-ylsulfanyl}-2-methylpropionate]	≥ 1.4 times
CC(CO)Sc1cnc(Nc2ccc(-c3nnn[nH]3)cn2)c(Oc2ccc(F)c(F)c2)c1 (stereo not drawn) [Example 32, 2-{5-(3,4-Difluorophenoxy)-6-[5-(1H-tetrazol-5-yl)pyridin-2-ylamino]pyridin-3-ylsulfanyl}propan-1-ol]	≥ 1.4 times
CC(C)Sc1cnc(Nc2ccc(-c3nnn[nH]3)cn2)c(Oc2ccc(F)c(F)c2)c1 [Example 33, [3-(3,4-Difluorophenoxy)-5-(1-methylethylsulfanyl)pyridin-2-yl]-[5-(1H-tetrazol-5-yl)pyridin-2-yl]amine]	≥ 1.4 times
CN(C)CCCSc1cnc(Nc2ccc(-c3nnn[nH]3)cn2)c(Oc2ccc(F)c(F)c2)c1 [Example 34, {3-(3,4-Difluorophenoxy)-5-[3-(dimethylamino)propylsulfanyl]pyridin-2-yl}-[5-(1H-tetrazol-5-yl)pyridin-2-yl]amine]	≥ 1.4 times
CCOCCSc1cnc(Nc2ccc(-c3nnn[nH]3)cn2)c(Oc2ccc(F)c(F)c2)c1 [Example 35, [3-(3,4-Difluorophenoxy)-5-(2-ethoxyethylsulfanyl)pyridin-2-yl]-[5-(1H-tetrazol-5-yl)pyridin-2-yl]amine]	≥ 1.4 times
COCCCOc1cnc(Nc2ccc(-c3nnn[nH]3)cn2)c(Oc2ccc(F)cc2F)c1 [Example 36, [3-(2,4-Difluorophenoxy)-5-(3-methoxypropoxy)pyridin-2-yl]-[5-(1H-tetrazol-5-yl)pyridin-2-yl]amine]	≥ 1.4 times
CC(CCO)Sc1cnc(Nc2ccc(-c3nnn[nH]3)cn2)c(Oc2ccc(F)cc2F)c1 (stereo not drawn) [Example 37, 3-{5-(2,4-Difluorophenoxy)-6-[5-(1H-tetrazol-5-yl)pyridin-2-ylamino]pyridin-3-ylsulfanyl}butan-1-ol]	≥ 1.4 times
Fc1ccc(Oc2cc(C(F)(F)F)cnc2Nc2ccc(-c3nnn[nH]3)cn2)c(F)c1 [Example 38, [3-(2,4-Difluorophenoxy)-5-trifluoromethylpyridin-2-yl]-[5-(1H-tetrazol-5-yl)pyridin-2-yl]amine]	≥ 1.4 times
O=c1[nH]c(-c2ccc(Nc3ncc(Sc4ccccn4)cc3Oc3ccc(F)cc3)nc2)no1 [Example 39, 3-{6-[3-(4-Fluorophenoxy)-5-(pyridin-2-ylsulfanyl)-pyridin-2-ylamino]pyridin-3-yl}-4H-[1,2,4]oxadiazol-5-one]	≥ 1.4 times
O=c1[nH]c(-c2ccc(Nc3ncc(Sc4ccccn4)cc3Oc3ccc(F)c(F)c3)nc2)no1 [Example 40, 3-{6-[3-(3,4-Difluorophenoxy)-5-(pyridin-2-ylsulfanyl)pyridin-2-ylamino]pyridin-3-yl}-4H-[1,2,4]oxadiazol-5-one]	≥ 1.4 times
O=c1[nH]c(-c2ccc(Nc3ncc(C(F)(F)F)cc3Oc3ccc(F)cc3F)nc2)no1 [Example 41, 3-{6-[3-(2,4-Difluorophenoxy)-5-trifluoromethylpyridin-2-ylamino]pyridin-3-yl}-4H-[1,2,4]oxadiazol-5-one]	≥ 1.4 times
CC(CCO)Sc1cnc(Nc2ccc(-c3noc(=O)[nH]3)cn2)c(Oc2ccc(F)cc2)c1 (stereo not drawn) [Example 42, 3-{6-[3-(4-Fluorophenoxy)-5-(3-hydroxy-1-methylpropylsulfanyl)pyridin-2-ylamino]pyridin-3-yl}-4H-[1,2,4]oxadiazol-5-one]	≥ 1.4 times
COCCCSc1cnc(Nc2ccc(-c3nnn[nH]3)cn2)c(Oc2ccc(F)cc2F)c1 [Example 43, [3-(2,4-Difluorophenoxy)-5-(3-methoxypropylsulfanyl)pyridin-2-yl]-[5-(1H-tetrazol-5-yl)pyridin-2-yl]amine]	≥ 1.4 times
COCCC(C)Sc1cnc(Nc2ccc(-c3nnn[nH]3)cn2)c(Oc2ccc(F)cc2F)c1 (stereo not drawn) [Example 44, [3-(2,4-Difluorophenoxy)-5-(3-methoxy-1-methylpropylsulfanyl)pyridin-2-yl]-[5-(1H-tetrazol-5-yl)pyridin-2-yl]amine]	≥ 1.4 times
COCCCSc1cnc(Nc2ccc(-c3noc(=O)[nH]3)cn2)c(Oc2ccc(F)cc2F)c1 [Example 45, 3-{6-[3-(2,4-Difluorophenoxy)-5-(3-methoxypropylsulfanyl)pyridin-2-ylamino]pyridin-3-yl}-4H-[1,2,4]oxadiazol-5-one]	≥ 1.4 times
COCCC(C)Sc1cnc(Nc2ccc(-c3noc(=O)[nH]3)cn2)c(Oc2ccc(F)cc2F)c1 (stereo not drawn) [Example 46, 3-{6-[3-(2,4-Difluorophenoxy)-5-(3-methoxy-1-methylpropylsulfanyl)pyridin-2-ylamino]pyridin-3-yl}-4H-[1,2,4]oxadiazol-5-one]	≥ 1.4 times
Fc1ccc(Oc2cc(SCC3CC3)cnc2Nc2ccc(-c3nnn[nH]3)cn2)c(F)c1 [Example 47, [5-(Cyclopropylmethylsulfanyl)-3-(2,4-difluorophenoxy)pyridin-2-yl]-[5-(1H-tetrazol-5-yl)pyridin-2-yl]amine]	≥ 1.4 times
